Reference: paper PMC4466796
Results are given in words; binding and its absence hold for the method and conditions named. In cells and extracts the contact can be indirect. Sequences can lack the tags named with a protein.

Chains of the proteins cited; added tags and fusions are not shown. Lines headed by an entry give the natural chain unless they say otherwise; changes in a name come on top.
UniProt P15056: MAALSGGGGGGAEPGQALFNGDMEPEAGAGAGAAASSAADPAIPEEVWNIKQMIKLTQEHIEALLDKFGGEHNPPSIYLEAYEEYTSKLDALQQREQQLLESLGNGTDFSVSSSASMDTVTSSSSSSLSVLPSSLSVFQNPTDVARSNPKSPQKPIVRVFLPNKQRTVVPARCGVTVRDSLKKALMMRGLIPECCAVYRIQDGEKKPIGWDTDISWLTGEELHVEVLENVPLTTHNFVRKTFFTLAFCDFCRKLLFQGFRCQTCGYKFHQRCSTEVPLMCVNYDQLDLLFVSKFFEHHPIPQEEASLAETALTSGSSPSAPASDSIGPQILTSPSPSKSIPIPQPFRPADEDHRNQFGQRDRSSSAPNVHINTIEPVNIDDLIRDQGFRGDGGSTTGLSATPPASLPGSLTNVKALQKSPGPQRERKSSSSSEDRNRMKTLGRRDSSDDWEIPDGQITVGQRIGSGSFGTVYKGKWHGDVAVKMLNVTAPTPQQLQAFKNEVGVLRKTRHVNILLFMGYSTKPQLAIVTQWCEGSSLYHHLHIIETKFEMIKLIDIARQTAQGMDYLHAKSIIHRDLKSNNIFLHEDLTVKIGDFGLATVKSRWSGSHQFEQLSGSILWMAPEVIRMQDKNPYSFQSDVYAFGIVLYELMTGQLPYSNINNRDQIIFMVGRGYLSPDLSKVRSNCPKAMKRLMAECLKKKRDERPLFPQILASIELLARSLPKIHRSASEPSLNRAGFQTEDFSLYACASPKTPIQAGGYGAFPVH

Molecular target: T1, Myc-EBR (UniProt Q9UJM3)
T1 sequence: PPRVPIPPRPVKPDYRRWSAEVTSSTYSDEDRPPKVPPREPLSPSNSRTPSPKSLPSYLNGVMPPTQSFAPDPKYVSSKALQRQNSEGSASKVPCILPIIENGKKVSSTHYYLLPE
Assay: co-IP; Cos-1 co-transfected with FLAG-BRAF WT or V600E and Myc-MIG-6 or Myc-EBR, serum starved (reproducible after FBS incubation); reciprocal anti-Myc IP (1:500); blots for BRAF and pEGFR (Y1173)

| Substance | binding |
| --- | --- |
| FLAG-BRAF V600E (from UniProt P15056 1-766) | no binding |
| FLAG-BRAF WT (from UniProt P15056 1-766) | no binding |
